Data published in patent US20160201132A1, “GENE EXPRESSION BIOMARKERS OF LAQUINIMOD RESPONSIVENESS” (Teva Pharmaceutical Industries Ltd., priority 2013, published 2016).
The source gives many values for each of these; only a part stands here.

System: PBMC of RRMS patients
Experiment: Gene expression microarray analysis (HG-U133A-2) of PBMC from RRMS patients treated with LAQ, ancillary study to ALLEGRO
Assay type: in vivo, human
Description: The goal of this ancillary study was to characterize gene expression changes and corresponding biological mechanisms induced in PBMC of RRMS patients by LAQ treatment. According to ALLEGRO clinical trial inclusion criteria, 25 patients were randomly assigned to receive LAQ (n=13, age 38.8±2.3 years, female/male ratio: 8/5) or placebo (n=12, age 37.2±3.4 years, female/male ratio: 8/4).
Peripheral blood samples were obtained from RRMS patients at baseline before start of LAQ treatment or placebo, after 0, 1, 6 and 24 month of treatment (visit 0, 1, 6 and 7 according to ALLEGRO clinical trial protocol correspondently) for gene microarray analysis.
Briefly, 1) Peripheral blood mononuclear cells (PBMC) were obtained from RRMS patients that participated in ALLEGRO and were treated daily with 0.6 mg LAQ or placebo. PBMC were subjected for gene expression analysis (HU-133A-2-Affymatrix arrays) at baseline and at 1 and 6 months of LAQ treatment; 2) Data was analyzed by Partek Genomics Solution software. Most informative genes (MIGs) were defined as those that differentiated between groups with p<0.01. Gene functional annotation, enrichment and pathway analysis were performed by Ingenuity software. For each time point, genes that changed in placebo group were excluded from further analysis; and 3) Verification of LAQ related mechanism was performed by Western blot.
PBMC were extracted from 15 ml peripheral blood, separated by Ficoll-Hypaque gradient. Total RNA was extracted using both Trizol (Invitrogen, USA) and Phase-Lock-Gel columns (Eppendorf, Germany) including a DNase digestion step. RNA integrity was assessed by RNA Experion automated electrophoresis system (Bio-Rad Laboratories, Hercules, Calif.).
Probe synthesis using 3 μg total RNA, hybridization, detection, and scanning was performed according to the standard Affymetrix, Inc. USA protocols; cDNA was synthesized using the Two-Cycle cDNA Synthesis Kit (Affymetrix, Inc., USA), and in-vitro transcription performed with the GeneChip IVT Labeling Kit (Affymetrix, Inc., USA). The biotin-labeled IVT-RNA was hybridized to HG-U133A-2 arrays containing 18,400 gene transcripts, each corresponding to 14,500 well-annotated human genes, washed in a GeneChip Fluidics Station 450 (Hewlett Packard, USA, GeneArray-™ scanner G2500A) and scanned according to the manufacturer's protocol (Affymetrix, Inc., USA).
Data analysis was performed on Partek Genomics Solution software (www.partek.com; Partek Incorporated, St. Louis, Mo.). Expression values were computed from raw CEL files by applying the Robust Multi-Chip Average (RMA) background correction algorithm. RMA correction included: 1) values background correction; 2) quintile normalization; 3) log 2 transformation; and 4) median polish summarization. The ANOVA, Repeated Measures and correlation analysis implicated in Partek software ware applied to evaluate LAQ effects. Most informative genes MIGs were defined as those that differentiated between experimental groups with p<0.01. All p-values were calculated for False Discovery Rate (FDR) multiple test correction at p=0.05.
Additionally, significance of individual genes was tested by parametric T-test and non parametric Mann-Whitney test using Bootstrapping approach based on repeated permutations of the data with 5% FDR for multiple testing.
Gene functional annotation, enrichment, and pathway analyses to identify the leading biological pathways that operated under LAQ treatment were performed by Ingenuity Pathways Analysis software (www.ingenuity.com).
ANOVA analysis was used to compare PBMC gene expression after 1, 6 or 24 month of LAQ treatment with baseline gene expression.
For each time point inventors performed analysis source of variation in dataset. (FIG. 1). Age, gender and batch effects were considered as confounders regarding LAQ or Placebo related changes. For each time point genes associated with Placebo effect were evaluated and excluded from further analysis. […]

CCN(C(=O)c1c(O)c2c(Cl)cccc2n(C)c1=O)c1ccccc1 [LAQ, 5-chloro-N-ethyl-4-hydroxy-1-methyl-2-oxo-N-phenyl-1,2-dihydroquinoline-3-carboxamide]
Fold-Change (4.0 vs. 0.0) (gene CA5A, after six months of LAQ): −1.23 | Fold-Change (4.0 vs. 0.0) (gene CACNB2, PBMC, six months of LAQ treatment): −1.118 | Fold-Change (4.0 vs. 0.0) (gene CADM4, six months of treatment): −1.1601 | Fold-Change (4.0 vs. 0.0) (gene CALB2, six months of treatment): −1.146 | Fold-Change (4.0 vs. 0.0) (gene CALCB, after six months of LAQ): −1.133 | Fold-Change (4.0 vs. 0.0) (gene CALD1, after six months of LAQ): −1.356 | Fold-Change (4.0 vs. 0.0) (gene CAMK1G): −1.187 | Fold-Change (4.0 vs. 0.0) (gene CAP2, after six months of LAQ): −1.132 | Fold-Change (4.0 vs. 0.0) (gene CAPN6, six months of treatment): −1.156 | Fold-Change (4.0 vs. 0.0) (gene CAPN9, after six months of LAQ): −1.136 | Fold-Change (4.0 vs. 0.0) (gene CARD14): −1.189 | Fold-Change (4.0 vs. 0.0) (gene CASP7, after six months of LAQ): −1.251 | Fold-Change (4.0 vs. 0.0) (gene CBL): −1.189 | Fold-Change (4.0 vs. 0.0) (gene CCDC81, after six months of LAQ): −1.133 | Fold-Change (4.0 vs. 0.0) (gene CCL19, after six months of LAQ): −1.127 | Fold-Change (4.0 vs. 0.0) (gene CCT8L2, after six months of LAQ): −1.245 | Fold-Change (4.0 vs. 0.0) (gene CD80, after six months of LAQ): −1.306 | Fold-Change (4.0 vs. 0.0) (gene CDC42EP4, after six months of LAQ): −1.238 | Fold-Change (4.0 vs. 0.0) (gene CDC45L): −1.195 | Fold-Change (4.0 vs. 0.0) (gene CDH2, after six months of LAQ): −1.128 | Fold-Change (4.0 vs. 0.0) (gene CDH11): −1.189 | Fold-Change (4.0 vs. 0.0) (gene CDH16, after six months of LAQ): −1.133 | Fold-Change (4.0 vs. 0.0) (gene CDH20, six months of treatment): −1.154 | Fold-Change (4.0 vs. 0.0) (gene CDH22, six months of treatment): −1.148 | Fold-Change (4.0 vs. 0.0) (gene CDK6, after six months of LAQ): −1.139 | Fold-Change (4.0 vs. 0.0) (gene CDKL2): −1.189 | Fold-Change (4.0 vs. 0.0) (gene CELA2A /// CELA2B, after six months of LAQ): −1.138 | Fold-Change (4.0 vs. 0.0) (gene CELA2A, six months of treatment): −1.15 | Fold-Change (4.0 vs. 0.0) (gene CFTR): −1.185 | Fold-Change (4.0 vs. 0.0) (gene CFTR, PBMC, six months of LAQ treatment): −1.0898 | Fold-Change (4.0 vs. 0.0) (gene CHD5, after six months of LAQ): −1.137 | Fold-Change (4.0 vs. 0.0) (gene CHI3L1, after six months of LAQ): −1.134 | Fold-Change (4.0 vs. 0.0) (gene CHN1, after six months of LAQ): −1.2914 | Fold-Change (4.0 vs. 0.0) (gene CHP2, after six months of LAQ): −1.13 | Fold-Change (4.0 vs. 0.0) (gene CHRD, six months of treatment): −1.152 | Fold-Change (4.0 vs. 0.0) (gene CHRNA3, after six months of LAQ): −1.124 | Fold-Change (4.0 vs. 0.0) (gene CHRNA6, six months of treatment): −1.158 | Fold-Change (4.0 vs. 0.0) (gene CHST3): −1.191 | Fold-Change (4.0 vs. 0.0) (gene CIB2, six months of treatment): −1.158 | Fold-Change (4.0 vs. 0.0) (gene CIDEA, after six months of LAQ): −1.138 | Fold-Change (4.0 vs. 0.0) (gene CLCF1, after six months of LAQ): −1.2966 | Fold-Change (4.0 vs. 0.0) (gene CLCNKA /// CLCNKB, after six months of LAQ): −1.132 | Fold-Change (4.0 vs. 0.0) (gene CLCNKB, after six months of LAQ): −1.271 | Fold-Change (4.0 vs. 0.0) (gene CLDN1, after six months of LAQ): −1.124 | Fold-Change (4.0 vs. 0.0) (gene CLDN4): −1.1878 | Fold-Change (4.0 vs. 0.0) (gene CLDN18): −1.1916 | Fold-Change (4.0 vs. 0.0) (gene CLIC4, after six months of LAQ): −1.24 | Fold-Change (4.0 vs. 0.0) (gene CLOCK, after six months of LAQ): −1.141 | Fold-Change (4.0 vs. 0.0) (gene CLTA, PBMC, six months of LAQ treatment): −1.099 | Fold-Change (4.0 vs. 0.0) (gene CMA1, after six months of LAQ): −1.245 | Fold-Change (4.0 vs. 0.0) (gene CNGB1, after six months of LAQ): −1.136 | Fold-Change (4.0 vs. 0.0) (gene CNOT3, PBMC, six months of LAQ treatment): −1.108 | Fold-Change (4.0 vs. 0.0) (gene CNTD2, after six months of LAQ): −1.229 | Fold-Change (4.0 vs. 0.0) (gene CNTF /// ZFP91 /// ZFP91-CNTF, after six months of LAQ): −1.144 | Fold-Change (4.0 vs. 0.0) (gene COBLL1, after six months of LAQ): −1.346 | Fold-Change (4.0 vs. 0.0) (gene COL1A1, after six months of LAQ): −1.143 | Fold-Change (4.0 vs. 0.0) (gene COL4A1, PBMC, six months of LAQ treatment): −1.116 | Fold-Change (4.0 vs. 0.0) (gene COL4A3, after six months of LAQ): −1.14 | Fold-Change (4.0 vs. 0.0) (gene COL4A6, after six months of LAQ): −1.135 | Fold-Change (4.0 vs. 0.0) (gene COL4A6, six months of treatment): −1.157 | Fold-Change (4.0 vs. 0.0) (gene COL5A1, after six months of LAQ): −1.138 | Fold-Change (4.0 vs. 0.0) (gene COL6A1, PBMC, six months of LAQ treatment): −1.115 | Fold-Change (4.0 vs. 0.0) (gene COL17A1, after six months of LAQ): −1.139 | Fold-Change (4.0 vs. 0.0) (gene COMT, PBMC, six months of LAQ treatment): −1.119 | Fold-Change (4.0 vs. 0.0) (gene CPA1, after six months of LAQ): −1.132 | Fold-Change (4.0 vs. 0.0) (gene CPB2, after six months of LAQ): −1.133 | Fold-Change (4.0 vs. 0.0) (gene CPLX3 /// LMAN1L, six months of treatment): −1.153 | Fold-Change (4.0 vs. 0.0) (gene CPM, six months of treatment): −1.145 | Fold-Change (4.0 vs. 0.0) (gene CPN2, after six months of LAQ): −1.13 | Fold-Change (4.0 vs. 0.0) (gene CPT2, after six months of LAQ): −1.32 | Fold-Change (4.0 vs. 0.0) (gene CREB3L1, after six months of LAQ): −1.225 | Fold-Change (4.0 vs. 0.0) (gene CRISP2, after six months of LAQ): −1.137 | Fold-Change (4.0 vs. 0.0) (gene CRMP1): −1.188 | Fold-Change (4.0 vs. 0.0) (gene CRYBB2, after six months of LAQ): −1.273 | Fold-Change (4.0 vs. 0.0) (gene CSF1, after six months of LAQ): −1.225 | Fold-Change (4.0 vs. 0.0) (gene CSH1, after six months of LAQ): −1.141 | Fold-Change (4.0 vs. 0.0) (gene CSN2, after six months of LAQ): −1.137 | Fold-Change (4.0 vs. 0.0) (gene CSPG5, after six months of LAQ): −1.125 | Fold-Change (4.0 vs. 0.0) (gene CST6, after six months of LAQ): −1.33 | Fold-Change (4.0 vs. 0.0) (gene CST8, six months of treatment): −1.156 | Fold-Change (4.0 vs. 0.0) (gene CTNNAL1, after six months of LAQ): −1.408 | Fold-Change (4.0 vs. 0.0) (gene CTRC, after six months of LAQ): −1.228
